## Results from one PubChem assay

The results are deposited in PubChem (AID504749; NCATS, 2011).

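A panel of P. falciparum strains inside erythrocytes is exposed to compounds for three days, then a DNA-binding dye reports the amount of parasite DNA. Each compound was titrated across a series from about 0.000037 to 29 µM. The number is the fitted AC50, the concentration giving a half-maximal change in signal; a lower value means higher potency, whether the curve shows a decrease or an increase. Calls follow the curve class and fit quality: every row here is inconclusive, covering signal-raising curves and weak, poorly fitted, partial or highest-dose-only inhibition curves.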

Values are in nM. All entries here are filed as inconclusive. Only part of the assay is shown, chiefly results filed as inconclusive. Potencies fitted to partial, single-point or poorly fitting curves are rough.

CCOC(=O)Nc1ccc(NCc2ccc(F)cc2)nc1N [CP329] read Potency 13459 nM (inhibitor, single point).
CCOC(=O)Nc1ccc(NCc2ccc(F)cc2)nc1N [CP305] read Potency 19011 nM (inhibitor, partial curve, poor fit).
CCOC(=O)Nc1ccc(NCc2ccc(F)cc2)nc1N [CP215] read Potency 19011 nM (inhibitor, single point).
CCOC(=O)Nc1ccc(NCc2ccc(F)cc2)nc1N [CP201] read Potency 16944 nM (inhibitor, single point).
CCOC(=O)Nc1ccc(NCc2ccc(F)cc2)nc1N [PC15] read Potency 10000 nM (inhibitor, single point).
CCOC(=O)Nc1ccc(NCc2ccc(F)cc2)nc1N [CP238] read Potency 12589 nM (inhibitor, single point).
CCOC(=O)Nc1ccc(NCc2ccc(F)cc2)nc1N [C2A] read Potency 11220 nM (inhibitor, single point).
CCOC(=O)Nc1ccc(NCc2ccc(F)cc2)nc1N [CP315] read Potency 19011 nM (inhibitor, single point).
CCOC(=O)Nc1ccc(NCc2ccc(F)cc2)nc1N [ATS95] read Potency 14125 nM (inhibitor, single point).
CCOC(=O)Nc1ccc(NCc2ccc(F)cc2)nc1N [CP268] read Potency 1200 nM (inhibitor, partial curve, poor fit).
CCOC(=O)Nc1ccc(NCc2ccc(F)cc2)nc1N [CP192] read Potency 13459 nM (inhibitor, single point).
CCOC(=O)Nc1ccc(NCc2ccc(F)cc2)nc1N [CP266] read Potency 1069 nM (inhibitor, partial curve, poor fit).
CCOC(=O)Nc1ccc(NCc2ccc(F)cc2)nc1N [CP297] read Potency 16944 nM (inhibitor, single point).
CCOC(=O)Nc1ccc(NCc2ccc(F)cc2)nc1N [CP185] read Potency 10000 nM (inhibitor, single point).
CCOC(=O)Nc1ccc(NCc2ccc(F)cc2)nc1N [DFO2036] read Potency 12589 nM (inhibitor, single point).
CCOC(=O)Nc1ccc(NCc2ccc(F)cc2)nc1N [P94_40] read Potency 17782 nM (inhibitor, single point).
CCOC(=O)Nc1ccc(NCc2ccc(F)cc2)nc1N [CP211] read Potency 15101 nM (inhibitor, partial curve, poor fit).
CCOC(=O)Nc1ccc(NCc2ccc(F)cc2)nc1N [PC49] read Potency 17782 nM (inhibitor, single point).
CCOC(=O)Nc1ccc(NCc2ccc(F)cc2)nc1N [GB4] read Potency 19011 nM (inhibitor, single point).
CCOC(=O)Nc1ccc(NCc2ccc(F)cc2)nc1N [FAB9] read Potency 15848 nM (inhibitor, single point).
CCOC(=O)Nc1ccc(NCc2ccc(F)cc2)nc1N [CP269] read Potency 16944 nM (inhibitor, single point).
CCOC(=O)Nc1ccc(NCc2ccc(F)cc2)nc1N [CP194] read Potency 16944 nM (inhibitor, single point).
CCOC(=O)Nc1ccc(NCc2ccc(F)cc2)nc1N [P93_24] read Potency 10000 nM (inhibitor, single point).
CCOC(=O)Nc1ccc(NCc2ccc(F)cc2)nc1N [CP291] read Potency 15101 nM (inhibitor, single point).
CCOC(=O)Nc1ccc(NCc2ccc(F)cc2)nc1N [CP250] read Potency 11220 nM (inhibitor, single point).
CCOC(=O)Nc1ccc(NCc2ccc(F)cc2)nc1N [CP325] read Potency 477.5 nM (inhibitor, full curve, poor fit).
N#CC(C#N)=Cc1cc(O)c(O)c(O)c1 [CP329] read Potency 16944 nM (inhibitor, single point).

Repeated from the top, 2 entries:

SMILES,tested on / at,Potency (nM),curve as filed
CCOC(=O)Nc1ccc(NCc2ccc(F)cc2)nc1N,CP329,13459,"inhibitor, single point"
CCOC(=O)Nc1ccc(NCc2ccc(F)cc2)nc1N,CP305,19011,"inhibitor, partial curve, poor fit"